Measurements taken from the supplement of paper PMC10849652.
Some of the results follow.

Chains of the proteins cited; added tags and fusions are not shown. Lines headed by an entry give the natural chain unless they say otherwise; changes in a name come on top.
UniProt Q99653: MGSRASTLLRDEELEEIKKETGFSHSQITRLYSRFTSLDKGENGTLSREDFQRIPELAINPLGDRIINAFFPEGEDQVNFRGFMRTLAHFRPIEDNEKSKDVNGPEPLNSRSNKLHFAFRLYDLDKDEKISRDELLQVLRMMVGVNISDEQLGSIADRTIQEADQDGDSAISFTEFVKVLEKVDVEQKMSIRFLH
UniProt Q9ULV3: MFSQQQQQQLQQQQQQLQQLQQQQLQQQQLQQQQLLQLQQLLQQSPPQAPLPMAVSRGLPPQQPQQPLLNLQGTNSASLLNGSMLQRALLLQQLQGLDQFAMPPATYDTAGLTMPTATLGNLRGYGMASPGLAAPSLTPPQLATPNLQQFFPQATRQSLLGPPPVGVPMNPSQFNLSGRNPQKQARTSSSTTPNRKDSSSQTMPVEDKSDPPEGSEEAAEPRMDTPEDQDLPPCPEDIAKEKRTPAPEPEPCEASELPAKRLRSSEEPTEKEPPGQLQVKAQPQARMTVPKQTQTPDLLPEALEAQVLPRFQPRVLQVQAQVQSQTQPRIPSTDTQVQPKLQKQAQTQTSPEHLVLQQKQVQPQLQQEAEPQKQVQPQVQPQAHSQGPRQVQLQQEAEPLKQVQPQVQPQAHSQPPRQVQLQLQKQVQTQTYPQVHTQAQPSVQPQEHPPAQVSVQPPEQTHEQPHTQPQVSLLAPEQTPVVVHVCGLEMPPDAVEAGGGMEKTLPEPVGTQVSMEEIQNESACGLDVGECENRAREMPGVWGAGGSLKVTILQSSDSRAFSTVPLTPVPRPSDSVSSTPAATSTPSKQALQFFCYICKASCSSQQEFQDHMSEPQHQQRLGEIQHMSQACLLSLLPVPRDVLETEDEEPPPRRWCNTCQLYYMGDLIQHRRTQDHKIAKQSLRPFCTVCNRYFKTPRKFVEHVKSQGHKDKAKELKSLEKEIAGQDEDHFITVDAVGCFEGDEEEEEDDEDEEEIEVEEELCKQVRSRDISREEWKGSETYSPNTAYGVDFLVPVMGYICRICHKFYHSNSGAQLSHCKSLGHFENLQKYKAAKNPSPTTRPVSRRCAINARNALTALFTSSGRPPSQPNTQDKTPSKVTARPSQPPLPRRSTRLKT
UniProt P51788: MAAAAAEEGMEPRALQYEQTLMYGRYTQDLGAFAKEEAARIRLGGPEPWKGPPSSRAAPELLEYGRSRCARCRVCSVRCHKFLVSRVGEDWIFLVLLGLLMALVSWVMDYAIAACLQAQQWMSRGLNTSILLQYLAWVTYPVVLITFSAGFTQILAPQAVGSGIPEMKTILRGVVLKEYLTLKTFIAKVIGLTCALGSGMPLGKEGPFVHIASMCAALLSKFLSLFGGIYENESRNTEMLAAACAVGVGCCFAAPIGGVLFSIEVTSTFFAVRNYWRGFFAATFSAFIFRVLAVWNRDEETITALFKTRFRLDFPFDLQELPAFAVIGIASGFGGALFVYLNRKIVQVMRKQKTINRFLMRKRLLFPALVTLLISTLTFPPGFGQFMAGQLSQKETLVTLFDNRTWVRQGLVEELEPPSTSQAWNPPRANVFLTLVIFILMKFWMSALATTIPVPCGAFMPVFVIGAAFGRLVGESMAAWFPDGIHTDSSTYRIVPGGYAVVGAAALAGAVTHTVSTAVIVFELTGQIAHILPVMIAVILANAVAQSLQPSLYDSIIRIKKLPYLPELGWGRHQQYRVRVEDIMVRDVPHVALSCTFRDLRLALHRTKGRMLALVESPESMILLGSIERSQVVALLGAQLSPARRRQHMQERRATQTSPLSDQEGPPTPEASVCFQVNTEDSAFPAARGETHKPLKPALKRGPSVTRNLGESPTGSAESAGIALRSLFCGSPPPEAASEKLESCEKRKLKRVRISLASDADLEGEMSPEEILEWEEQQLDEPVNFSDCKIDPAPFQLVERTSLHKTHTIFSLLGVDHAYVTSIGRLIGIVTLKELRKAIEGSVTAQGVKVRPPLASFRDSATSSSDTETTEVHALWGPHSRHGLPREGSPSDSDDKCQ
UniProt O43529: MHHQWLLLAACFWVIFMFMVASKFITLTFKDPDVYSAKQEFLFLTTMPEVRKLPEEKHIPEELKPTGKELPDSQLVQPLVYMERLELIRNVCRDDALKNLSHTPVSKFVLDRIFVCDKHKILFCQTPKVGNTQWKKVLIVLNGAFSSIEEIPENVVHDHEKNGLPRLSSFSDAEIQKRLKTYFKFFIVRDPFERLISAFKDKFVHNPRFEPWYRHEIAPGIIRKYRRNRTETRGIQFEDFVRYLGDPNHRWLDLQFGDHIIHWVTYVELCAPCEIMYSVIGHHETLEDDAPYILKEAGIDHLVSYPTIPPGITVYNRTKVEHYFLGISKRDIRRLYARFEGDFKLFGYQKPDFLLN
UniProt O75122: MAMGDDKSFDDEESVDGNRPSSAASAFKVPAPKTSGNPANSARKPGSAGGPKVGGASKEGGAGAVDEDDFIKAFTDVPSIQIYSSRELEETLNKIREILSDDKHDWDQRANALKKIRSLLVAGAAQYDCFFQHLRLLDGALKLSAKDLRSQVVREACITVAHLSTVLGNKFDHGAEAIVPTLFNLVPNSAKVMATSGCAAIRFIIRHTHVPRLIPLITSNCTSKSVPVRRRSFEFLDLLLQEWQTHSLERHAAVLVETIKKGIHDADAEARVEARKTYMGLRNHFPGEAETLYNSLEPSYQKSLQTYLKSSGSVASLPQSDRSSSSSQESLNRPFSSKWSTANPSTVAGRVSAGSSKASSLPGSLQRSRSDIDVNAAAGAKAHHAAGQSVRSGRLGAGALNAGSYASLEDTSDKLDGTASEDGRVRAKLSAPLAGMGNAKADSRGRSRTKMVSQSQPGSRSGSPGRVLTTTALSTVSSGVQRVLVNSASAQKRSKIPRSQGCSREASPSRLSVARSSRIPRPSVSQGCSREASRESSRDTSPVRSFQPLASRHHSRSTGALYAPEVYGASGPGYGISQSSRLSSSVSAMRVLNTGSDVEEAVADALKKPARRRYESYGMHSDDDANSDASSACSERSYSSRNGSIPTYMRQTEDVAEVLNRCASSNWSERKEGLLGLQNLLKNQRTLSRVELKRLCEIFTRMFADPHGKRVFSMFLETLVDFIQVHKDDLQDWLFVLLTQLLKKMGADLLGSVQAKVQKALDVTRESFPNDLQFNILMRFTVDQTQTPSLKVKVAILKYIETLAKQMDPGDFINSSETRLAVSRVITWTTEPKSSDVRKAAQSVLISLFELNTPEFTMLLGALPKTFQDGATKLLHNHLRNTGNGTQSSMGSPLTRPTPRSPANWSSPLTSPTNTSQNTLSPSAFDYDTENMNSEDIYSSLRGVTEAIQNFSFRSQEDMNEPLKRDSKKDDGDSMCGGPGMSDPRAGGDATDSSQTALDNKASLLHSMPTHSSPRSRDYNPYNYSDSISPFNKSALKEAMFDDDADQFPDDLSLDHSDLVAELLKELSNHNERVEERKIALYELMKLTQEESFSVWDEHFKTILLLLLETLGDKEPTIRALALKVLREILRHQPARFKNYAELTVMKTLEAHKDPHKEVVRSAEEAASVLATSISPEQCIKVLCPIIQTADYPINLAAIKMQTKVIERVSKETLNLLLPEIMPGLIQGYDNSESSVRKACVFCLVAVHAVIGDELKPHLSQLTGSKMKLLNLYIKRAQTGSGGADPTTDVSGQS
UniProt P51790: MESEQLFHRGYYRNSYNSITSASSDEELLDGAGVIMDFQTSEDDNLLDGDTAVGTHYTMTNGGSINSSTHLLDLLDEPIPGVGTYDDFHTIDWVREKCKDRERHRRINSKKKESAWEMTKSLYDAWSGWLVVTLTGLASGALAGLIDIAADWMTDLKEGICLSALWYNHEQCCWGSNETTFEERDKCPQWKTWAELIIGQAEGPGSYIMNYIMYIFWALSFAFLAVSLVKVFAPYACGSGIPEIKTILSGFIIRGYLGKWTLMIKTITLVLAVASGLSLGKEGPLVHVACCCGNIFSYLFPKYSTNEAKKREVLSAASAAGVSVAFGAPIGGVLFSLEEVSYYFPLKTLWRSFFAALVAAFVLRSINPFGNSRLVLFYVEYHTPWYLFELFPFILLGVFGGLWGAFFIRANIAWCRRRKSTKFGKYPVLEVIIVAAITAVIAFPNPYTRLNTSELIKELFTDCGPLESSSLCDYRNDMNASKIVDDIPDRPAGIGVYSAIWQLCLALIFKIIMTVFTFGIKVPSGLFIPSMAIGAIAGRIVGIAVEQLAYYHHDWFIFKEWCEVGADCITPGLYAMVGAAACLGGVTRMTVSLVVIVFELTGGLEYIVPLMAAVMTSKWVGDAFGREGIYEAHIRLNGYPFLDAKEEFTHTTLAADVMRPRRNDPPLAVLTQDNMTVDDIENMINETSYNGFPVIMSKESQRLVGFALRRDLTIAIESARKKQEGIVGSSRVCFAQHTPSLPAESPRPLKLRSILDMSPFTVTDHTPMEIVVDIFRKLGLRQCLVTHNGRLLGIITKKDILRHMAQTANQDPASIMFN
UniProt Q96KP4: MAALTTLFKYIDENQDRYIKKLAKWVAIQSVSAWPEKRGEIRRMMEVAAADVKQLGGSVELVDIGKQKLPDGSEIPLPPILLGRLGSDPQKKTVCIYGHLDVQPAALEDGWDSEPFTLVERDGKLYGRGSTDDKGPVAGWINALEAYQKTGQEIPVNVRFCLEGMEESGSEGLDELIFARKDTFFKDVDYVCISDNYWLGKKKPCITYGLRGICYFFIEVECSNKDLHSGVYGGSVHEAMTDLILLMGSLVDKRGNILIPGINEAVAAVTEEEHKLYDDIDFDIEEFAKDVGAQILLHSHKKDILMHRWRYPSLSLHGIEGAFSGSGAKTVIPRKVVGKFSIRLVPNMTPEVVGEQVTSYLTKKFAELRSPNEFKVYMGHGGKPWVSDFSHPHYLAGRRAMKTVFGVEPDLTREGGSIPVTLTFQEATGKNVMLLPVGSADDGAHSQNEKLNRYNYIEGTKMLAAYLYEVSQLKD
UniProt Q9HAW4: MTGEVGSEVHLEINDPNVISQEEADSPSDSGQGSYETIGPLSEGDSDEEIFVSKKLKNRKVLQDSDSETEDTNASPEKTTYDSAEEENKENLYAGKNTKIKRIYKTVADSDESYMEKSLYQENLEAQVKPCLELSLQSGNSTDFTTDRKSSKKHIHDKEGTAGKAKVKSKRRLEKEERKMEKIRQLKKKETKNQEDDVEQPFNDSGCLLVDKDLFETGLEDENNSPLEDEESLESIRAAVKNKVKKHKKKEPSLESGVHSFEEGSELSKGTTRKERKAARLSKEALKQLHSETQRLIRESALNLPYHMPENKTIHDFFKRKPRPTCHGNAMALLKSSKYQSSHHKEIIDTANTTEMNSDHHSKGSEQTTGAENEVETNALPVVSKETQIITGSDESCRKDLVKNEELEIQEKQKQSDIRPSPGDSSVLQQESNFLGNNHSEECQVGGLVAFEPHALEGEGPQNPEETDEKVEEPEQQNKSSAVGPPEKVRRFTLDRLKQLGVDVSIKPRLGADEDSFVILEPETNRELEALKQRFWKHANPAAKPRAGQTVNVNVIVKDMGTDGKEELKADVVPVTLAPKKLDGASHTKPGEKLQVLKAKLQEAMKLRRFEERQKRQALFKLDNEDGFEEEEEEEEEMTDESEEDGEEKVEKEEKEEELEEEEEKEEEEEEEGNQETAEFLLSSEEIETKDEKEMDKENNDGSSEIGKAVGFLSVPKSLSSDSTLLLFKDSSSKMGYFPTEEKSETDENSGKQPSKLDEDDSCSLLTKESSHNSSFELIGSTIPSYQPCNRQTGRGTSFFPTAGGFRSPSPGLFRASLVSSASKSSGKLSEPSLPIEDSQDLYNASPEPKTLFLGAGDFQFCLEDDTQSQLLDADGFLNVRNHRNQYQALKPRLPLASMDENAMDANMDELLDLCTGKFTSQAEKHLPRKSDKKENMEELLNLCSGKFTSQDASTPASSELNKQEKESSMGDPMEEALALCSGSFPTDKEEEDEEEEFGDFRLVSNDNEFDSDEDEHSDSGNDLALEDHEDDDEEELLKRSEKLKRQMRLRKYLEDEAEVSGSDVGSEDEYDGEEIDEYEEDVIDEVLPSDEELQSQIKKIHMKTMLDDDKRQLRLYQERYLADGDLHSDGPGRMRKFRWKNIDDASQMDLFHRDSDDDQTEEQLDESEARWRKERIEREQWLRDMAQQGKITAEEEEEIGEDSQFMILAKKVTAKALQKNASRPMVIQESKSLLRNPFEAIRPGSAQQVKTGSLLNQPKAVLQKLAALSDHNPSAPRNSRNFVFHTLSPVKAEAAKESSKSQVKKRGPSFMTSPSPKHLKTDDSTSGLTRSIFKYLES

Key:
Assay in all cases: log2 fold change, soluble protein after heating vs DMSO (PISA); higher = thermal stabilisation; K562 cells, 10 uM, 30 min; active = over 0.2 and 3.5 SD of the protein, either way, in both replicates (recomputed)
[1] = compound: CC1=C(C=C(C=C1)NC(=O)C2=CC(=CC=C2)C(C)(C)C#N)NC3=CC4=C(C=C3)N=CN(C4=O)C
Summary of the method: (§1)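 Soluble protein was defined as the supernatant after 21,000xg for 90 min. It came from K562 cells at 2×10^6 cells/mL given 10 μM compound for 30 min, heated in aliquots for 3 min across 48°C-58°C, pooled, and extracted in PBS with 0.5% NP-40 at 4°C, and was quantified by TMTpro 16plex LC-MS/MS with equalised channel sums. Thermal stability against control samples, from duplicates, is reported as log2 fold change.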

[2] = compound: CC1=C(C=C(C=C1)NC(=O)C2=CC(=CC=C2)N(C)C)NC(=O)C3=CC=C(C=C3)O
Summary of the method: as §1

[3] = compound: CC1=CC=C(C=C1)SC2=C3C=C(SC3=CN=C2)C(=O)N
Summary of the method: as §1

[4] = compound: CC1=NC(=CC=C1)C2=C(N=C(N2)C(C)(C)C)C3=CC4=NC=CN=C4C=C3
Summary of the method: as §1

Nexturastat A = compound: CCCCN(Cc1ccc(C(=O)NO)cc1)C(=O)Nc1ccccc1 [Nexturastat A]
Summary of the method: as §1

vemurafenib = compound: CCCS(=O)(=O)Nc1ccc(F)c(C(=O)c2c[nH]c3ncc(-c4ccc(Cl)cc4)cc23)c1F [vemurafenib]
Summary of the method: as §1

[5] = compound: CCCS(=O)(=O)Nc1ccc(F)c(C(=O)c2c[nH]c3ncc(Cl)cc23)c1F
Summary of the method: as §1

[6] = compound: CCCc1cc(C)[nH]c(=O)c1CNC(=O)c1cc(-c2ccnc(N3CCN(C)CC3)c2)cc2c1cnn2C(C)C
Summary of the method: as §1

givinostat = compound: CCN(CC)Cc1ccc2cc(COC(=O)Nc3ccc(C(=O)NO)cc3)ccc2c1 [givinostat]
Summary of the method: as §1

barasertib = compound: CCN(CCCOc1ccc2c(Nc3cc(CC(=O)Nc4cccc(F)c4)[nH]n3)ncnc2c1)CCOP(=O)(O)O [barasertib]
Summary of the method: as §1

[7] = compound: CC[C@@H]1C(=O)N(C)c2cnc(Nc3ccc(C(=O)NC4CCN(C)CC4)cc3OC)nc2N1C1CCCC1
Summary of the method: as §1

volasertib = compound: CC[C@@H]1C(=O)N(C)c2cnc(Nc3ccc(C(=O)N[C@H]4CC[C@H](N5CCN(CC6CC6)CC5)CC4)cc3OC)nc2N1C(C)C [volasertib]
Summary of the method: as §1

[8] = compound: CC[C@H](C)N1C=C(C2=C(C=C(C=C21)C3=CN=C(C=C3)N4CCNCC4)C(=O)NCC5=C(C=C(NC5=O)C)C)C
Summary of the method: as §1

epoxomicin = compound: CC[C@H](C)[C@@H](C(=O)N[C@@H]([C@@H](C)O)C(=O)N[C@@H](CC(C)C)C(=O)[C@]1(CO1)C)NC(=O)[C@H]([C@@H](C)CC)N(C)C(=O)C [epoxomicin]
Summary of the method: as §1

[9] = compound: CCn1cc(-c2ccnc3[nH]c(-c4cccc(CN(C)C)c4)cc23)c(-c2ccc(NC(=O)N(C)C)cc2)n1
Summary of the method: as §1

[10] = compound: CN(C)CC(=O)Nc1ccc2[nH]c(=O)c3ccccc3c2c1
Summary of the method: as §1

[11] = compound: CN1C2=C(C3=C1C(=O)N(N=C3)CC4=CC(=CC=C4)N)SC(=C2)S(=O)C
Summary of the method: as §1

[12] = compound: CN1CCC(CNc2ccc3ncc(-c4cccc(OC(F)(F)F)c4)n3n2)CC1
Summary of the method: as §1

[13] = compound: CCn1c(C(=O)N(C2CC2)C2CC2)cc2c3c(ncn3C)c(Nc3cc(C)n(C)n3)nc21
Summary of the method: as §1

rosiglitazone = compound: CN(CCOC1=CC=C(C=C1)C[C@H]2C(=O)NC(=O)S2)C3=CC=CC=N3 (racemic) [rosiglitazone]
Summary of the method: as §1

Row | Target | log2 fold change [1] | log2 fold change [2] | log2 fold change [3] | log2 fold change [4] | log2 fold change (Nexturastat A) | log2 fold change (vemurafenib) | log2 fold change [5] | log2 fold change [6] | log2 fold change (givinostat) | log2 fold change (barasertib) | log2 fold change [7] | log2 fold change (volasertib) | log2 fold change [8] | log2 fold change (epoxomicin) | log2 fold change [9] | log2 fold change [10] | log2 fold change [11] | log2 fold change [12] | log2 fold change [13] | log2 fold change (rosiglitazone)
1 | CHP1 (UniProt Q99653) | inactive: -0.048 | inactive: -0.016 | inactive: -0.112 | inactive: 0.021 | inactive: 0.016 | inactive: 0.141 | inactive: -0.042 | inactive: 0.008 | inactive: -0.035 | inactive: 0.009 | inactive: -0.069 | inactive: -0.036 | inactive: 0.033 | inactive: 0.061 | inactive: -0.007 | inactive: 0.063 | inactive: 0.034 | inactive: -0.028 | – | –
2 | CIZ1 (UniProt Q9ULV3) | inactive: -0.02 | inactive: -0.027 | inactive: -0.022 | inactive: 0.059 | inactive: 0.011 | inactive: -0.018 | inactive: -0.007 | inactive: -0.033 | inactive: 0.017 | inactive: 0.001 | inactive: 0.071 | inactive: -0.022 | inactive: 0.046 | inactive: 0.086 | inactive: 0.017 | inactive: -0.011 | inactive: 0.015 | inactive: -0.035 | – | –
3 | CLCN2 (UniProt P51788) | inactive: -0.064 | inactive: -0.018 | inactive: 0.005 | inactive: 0.071 | inactive: -0.144 | inactive: 0.018 | inactive: 0.061 | inactive: 0.044 | inactive: -0.213 | inactive: 0.007 | – | inactive: -0.012 | inactive: -0.109 | inactive: -0.117 | inactive: 0.078 | inactive: -0.071 | inactive: -0.023 | inactive: -0.004 | inactive: -0.103 | inactive: 0.069
4 | CHST10 (UniProt O43529) | inactive: 0.067 | inactive: -0.096 | inactive: -0.092 | inactive: -0.052 | inactive: 0.05 | – | inactive: -0.015 | inactive: -0.097 | inactive: 0.069 | inactive: -0.025 | – | inactive: -0.146 | inactive: 0.002 | inactive: -0.019 | inactive: -0.021 | – | – | inactive: -0.108 | – | –
5 | CLASP2 isoform 3 (UniProt O75122) | inactive: -0.032 | inactive: -0.01 | inactive: 0.013 | inactive: 0.012 | inactive: -0.006 | inactive: 0.089 | inactive: 0.061 | inactive: 0.029 | inactive: 0.013 | inactive: 0.066 | inactive: -0.175 | active: -0.326 | inactive: 0.054 | inactive: 0.034 | inactive: -0.024 | inactive: 0.051 | inactive: 0 | active: -0.227 | – | –
6 | CLCN3 (UniProt P51790) | inactive: -0.03 | inactive: 0.046 | inactive: 0.015 | inactive: 0.034 | active: -0.313 | inactive: 0.014 | inactive: 0.009 | inactive: -0.107 | inactive: 0.02 | inactive: 0.053 | inactive: 0.036 | inactive: -0.095 | inactive: -0.037 | inactive: -0.015 | inactive: 0.065 | inactive: 0.011 | inactive: -0.051 | inactive: -0.213 | – | –
7 | CNDP2 (UniProt Q96KP4) | inactive: 0.021 | inactive: -0.013 | inactive: 0.04 | inactive: 0.043 | inactive: -0.131 | inactive: 0.016 | inactive: 0.003 | inactive: -0.052 | inactive: -0.087 | inactive: -0.004 | inactive: -0.037 | inactive: 0.014 | inactive: -0.003 | inactive: -0.012 | inactive: -0.1 | inactive: -0.002 | inactive: -0.103 | inactive: -0.149 | – | –
8 | COASY isoform 2 (UniProt Q13057) | inactive: -0.002 | inactive: -0.058 | inactive: 0.057 | inactive: 0.029 | inactive: 0.021 | inactive: 0.054 | inactive: 0.209 | inactive: -0.007 | inactive: -0.04 | inactive: 0.029 | inactive: -0.068 | active: -0.266 | inactive: 0.027 | inactive: -0.013 | inactive: -0.052 | inactive: 0.038 | inactive: -0.08 | inactive: -0.132 | – | –
9 | CLSPN (UniProt Q9HAW4) | inactive: -0.048 | inactive: 0.003 | inactive: -0.025 | inactive: -0.035 | inactive: 0.006 | inactive: 0.041 | inactive: 0 | inactive: -0.012 | inactive: -0.032 | inactive: 0.006 | inactive: -0.017 | inactive: -0.159 | inactive: -0.019 | inactive: 0.037 | inactive: 0.031 | inactive: -0.048 | inactive: 0.04 | inactive: -0.02 | – | –
